# Among all 1,300 compounds or so, about 270 (21%) were called active.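 The calls were made as follows: active = dose-dependent rise or fall in viability, either side of zero, with half-maximal concentration at or below a set limit; inconclusive = flat curve at 30 to 70% viability loss, or poor fit; inactive = flat within 30% either way, or potency beyond limit.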 The list shows a part of the results. Results with a measured potency or affinity are listed apart.
# Experiment: A375 melanoma cell viability reduction, dose response, counter-screen for MITF modulator project, cherry-pick samples, set 2 (AID 540335);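 also: A375 human melanoma cells which do not depend on MITF; 0% = median of neutral control wells and 100% = double that signal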
# Settings: CellTiter-Glo ATP luminescence, 24 h; at 35 µM (top of the series)
row,SMILES,"activity change, negative = decreased viability"
1,Cc1nc(NC(=O)C2CC2)sc1C(=O)Nc1ccccc1Cl,inactive: 2.11%
2,Cc1nc(-c2ccccn2)sc1C(=O)Nc1ccc(F)cc1F,inactive: -3.45%
3,CCN(CC)CC(=O)Nc1scc2c1c(=O)oc1ccccc12,inactive: 14.3%
4,Cc1ccc(/C=N/Nc2ccc(C(=O)O)cc2)s1,inactive: -4.8%
5,N#Cc1c(NC(=O)CSc2ncn[nH]2)sc2c1CCCC2,inactive: 2.05%
6,Cc1c(NC(=O)C(C)OC(=O)c2ccc([N+](=O)[O-])s2)c(=O)n(-c2ccccc2)n1C (stereo not drawn),inactive: -5.1%
7,Cc1ccc(C(=O)Nc2ccccc2Cl)cc1,inactive: -3.07%
8,CC1CCN(c2ccc(NC(=O)c3cccnc3)cc2)CC1,inactive: 9.4%
9,Nc1nc2n[nH]nc2c(=O)[nH]1,inactive: -34.8%
10,O=[N+]([O-])c1ccc(/C=N/N=C/c2ccc([N+](=O)[O-])o2)o1,inactive: 10.5%
11,CC(=O)Nc1ccc(S(=O)(=O)NC2=C(N3CCN(C)CC3)C(=O)c3ccccc3C2=O)cc1,inactive: -33.5%
12,Cc1ccc(N2C(=O)c3ccc(N)cc3C2=O)cc1C,inactive: 13.4%
13,O=C1c2ccccc2C(=O)c2c1ncn2-c1ccccc1,inactive: -20.5%
14,CC(C)(C)N=Cc1cc(-c2ccccc2)sc1O,inactive: 10%
15,CCOC(=O)C(=Cc1ccc(-n2ccnc2)cc1)C(=O)OCC,inactive: -21.2%
16,CCc1nc2oc3ccccc3c(=O)c2cc1C(=O)OC,inactive: -2.08%
17,CC(NC(=O)C12CC3CC(CC(C3)C1)C2)C(=O)NN=Cc1ccc([N+](=O)[O-])o1 (stereo not drawn),inactive: -13.3%
18,Cn1nnnc1Sc1ncnc2scc(-c3ccc(C#N)cc3)c12,inactive: 29.3%
19,COCCNC(=O)/C(C#N)=C/c1cccc(/C=C(\C#N)C(=O)NCCOC)c1,inactive: 3.41%
20,CCN(CCO)c1ccc(N=Nc2cc(C)[nH]n2)cc1,inactive: 1.54%
21,O=C(Nc1ccccc1)O/N=C/c1ccc(F)cc1,inactive: 6.51%
22,Cc1ccc(C)c(-n2c3nc(=O)[nH]c(=O)c-3cc3cc([N+](=O)[O-])ccc32)c1,inactive: -5.21%
23,COc1ccc(/C=C2\SC(=S)N(CCCC(=O)NNC(=O)c3ccccc3O)C2=O)cc1,inactive: -9.23%
24,Cc1cc(/C=C(\C#N)C(=O)O)c(C)n1CC(C)C,inactive: 11%

row,SMILES,"activity change, negative = decreased viability"
1,CC(=O)c1sc(N/N=C\c2ccc(N(C)C)cc2)nc1C,inactive: 4.19%
2,O=[N+]([O-])c1ccccc1OCCCOc1cccc2cccnc12,inactive: 6.23%
3,CCOc1ccc(NC(=O)Nc2cccc(C(=O)O)c2)cc1,inactive: -33.1%
4,CCN(CC(=O)Nc1ccc2c(c1)OCCO2)C(=O)c1ccc([N+](=O)[O-])s1,inactive: 11.3%
5,COc1cc(NC(=O)COc2ccccc2[N+](=O)[O-])ccc1NC(=O)c1cccs1,inactive: -36.8%
6,Cc1nc(NCCOc2ccccc2)sc1C(=O)Nc1ccccc1,inactive: -4.16%
7,O=C(CCCCl)NC(=S)Nc1ccc(N2CCOCC2)cc1,inactive: 7.52%
8,O=C(N/N=C/c1ccc([N+](=O)[O-])s1)c1ccccc1,inactive: -15.9%
9,O=C(NC(=S)NCc1ccccc1)c1ccccc1,inactive: 15.5%
10,Cc1c(N=C2C=CC(=O)c3ccccc32)c(=O)n(-c2ccccc2)n1C,inactive: -31%
11,O=C(Nc1ccc(Cl)cc1)C1C2CCCCC21 (stereo not drawn),inactive: 11.6%
12,C=CCNc1nc(-c2ccccn2)nnc1-c1ccccc1,inactive: -21.7%
13,NC(=O)c1ccccc1NC(=O)/C=C/c1cccc(Cl)c1,inactive: -3.81%
14,Cc1cc(Br)ccc1OCc1nc(-c2cccnc2)no1,inactive: -3.95%
15,CCOc1ccc(-c2nnc(-c3cccs3)o2)cc1OCC,inactive: 5.92%
16,CCCN1CCC(NCc2cn(C)nc2-c2ccc(Oc3ccccc3)cc2)CC1,inactive: -5.6%
17,Cc1c(C#N)c(NC(=O)CCl)n(Cc2ccccc2)c1C,inactive: -3.06%
18,CCN1CCN(c2ccc(NC(=O)c3ccc([N+](=O)[O-])o3)cc2Cl)CC1,inactive: -0.148%
19,CCOC(=O)N1C(=O)[C@@](CC)(c2ccccc2)N1C(=O)OCC,inactive: 4.08%
20,N#C/C(=C\c1cccs1)C(=O)NCC1CCCO1 (stereo not drawn),inactive: 11.3%
21,O=[N+]([O-])c1cc(C(F)(F)F)ccc1NCCc1ccccn1,inactive: 5.9%
22,CS(=O)(=O)c1ncc(Cl)c(C(=O)Nc2ccc(N3CCOCC3)cc2)n1,inactive: -15.9%
23,Cc1ccc(C(=O)Nc2cnc3ccccc3c2)cc1,inactive: 0.329%
24,COc1ccc2c(c1OC)C(=O)N(c1ccc(C)cc1)C2,inactive: 8.55%

# Ordered by heavy-atom count (largest number first): 3 of the compounds above.
row,SMILES,"activity change, negative = decreased viability"
16,CCCN1CCC(NCc2cn(C)nc2-c2ccc(Oc3ccccc3)cc2)CC1,inactive: -5.6%
10,Cc1c(N=C2C=CC(=O)c3ccccc32)c(=O)n(-c2ccccc2)n1C,inactive: -31%
12,C=CCNc1nc(-c2ccccn2)nnc1-c1ccccc1,inactive: -21.7%

# Reference: PubChem BioAssay AID540335 (Broad Institute, 2011)
